# Measurements as given in the supplement of paper PMC12889115.
# This is one part of the list. Values are raw readings; no control value is given beside them.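 Primary screen: polymyxin B was added at a level permeabilizing Salmonella outer membranes while sparing inner membranes. DMSO wells, both with and without polymyxin B, established maximum growth. Plate-to-plate variation meant each plate was ranked on its own, and the lowest-OD600 compounds were selected as hits.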
# System: Salmonella enterica serovar Typhimurium SL1344
# Assay: bacterial growth OD600 after 18 h with compound and polymyxin B; higher = more bacterial growth (less inhibition)
# Conditions: 50 µM, Mueller-Hinton broth
SMILES,bacterial growth OD600 (polymyxin B 0.75 µg/mL),bacterial growth OD600 (polymyxin B 1 µg/mL)
CCOC(c1ccccc1)c1ccc2c(c1)CN(C(=O)CSc1ccncc1)CCO2 (stereo not given),0.795,–
COc1cccc(CN2CCC3(CC2)c2ccccc2[C@@H](NC(=O)c2ccccc2OC)[C@@H]3OC)c1,0.782,–
O=C(c1ccc(NC2CCCC2)nc1)N1CCC(Oc2cccnc2)CC1,0.795,–
CCN(CC)CCN(C)C(=O)CC1(c2cccc(F)c2)CC(=O)N(Cc2cccnc2)C1=O (stereo not given),0.771,–
COc1cccc(N2CCN(C(=O)Cn3cc(NC(=O)Cc4ccccc4OC)cn3)CC2=O)c1,0.906,–
COc1ccc(F)c(CC2(CCC(=O)NC3Cc4ccccc4C3)CCC(=O)N2)c1 (stereo not given),0.91,–
CCCc1cc(CNC(=O)c2ccc(N(C)C)nc2)on1,–,0.902
CCOC(=O)CCNC(=O)CCc1nnc(Cc2cccc(C)c2)o1,0.921,–
CN(Cc1ccc(Oc2ccccc2)cc1)CC1(O)CCCN(C)C1=O (stereo not given),–,0.898
O=C(NCc1ccc(Cl)s1)C1CCC(=O)N(CCc2cccc(F)c2)C1 (stereo not given),–,0.66
CCCn1cc(CN2CCC(Oc3cc(OC)ccc3C(=O)NC3CC3)CC2)c(C)n1,–,1.24
COCCN1C(=O)CC(CC(=O)N2CCN(C3CCCCC3)C(=O)C2)(c2ccccc2OC)C1=O (stereo not given),0.779,–
CC(C)CCn1c(CN(C)CCc2ccccc2)cnc1S(=O)(=O)C(C)C,–,0.357
CCOC(=O)N1CCC(N2CCCC(CNS(=O)(=O)c3ccc(OC)cc3)C2)CC1 (stereo not given),–,1.07
CCOC(=O)N1CCN(C(=O)c2ccc(N3CCC(NCc4cccc(F)c4F)CC3)cc2)CC1,0.845,–
O=C(NCC1CCCN(C(=O)c2cccnc2)C1)c1ccc(-c2ccccc2)cc1 (stereo not given),–,0.823
COc1cccc(OC)c1-c1cnnc(N2CCC(C(C)=O)(c3ccccc3)CC2)n1,–,0.014
CCOC(=O)C1CCCCN1C1CCN(c2nc(C)c3ccc(OC)cc3n2)CC1 (stereo not given),0.892,–
CCN(CCn1cccn1)C(=O)c1cc(COc2cccc3cnccc23)on1,–,0.874
CC(C)CC(=O)Nc1ccnn1C1CCN(Cc2cc(CC(C)C)[nH]n2)CC1,–,1.23
Cc1ccc(C(=O)N2CCc3c(cnc(C)c3CNC(=O)c3ccccc3F)C2)c(C)c1,0.921,–
CC(C)CN(C)C(=O)CC1(c2cccc(C(F)(F)F)c2)CC(=O)N(C2CC2)C1=O (stereo not given),0.753,–
CC(C)c1noc(-c2ccc(NCCOc3cccnc3)nc2)n1,–,0.995
Cc1nc(N2CCCCCCC2)ncc1C(C)NCc1cccnc1 (stereo not given),–,0.048
Cc1cccc(C(=O)NC2CC(=O)N(Cc3cccc(F)c3)C2)n1 (stereo not given),–,0.804
O=C(CCN1CCCO1)N1CCc2[nH]nc(-c3cccc4ccccc34)c2C1,0.772,–
CCOC(=O)C1(C/C=C/c2ccccc2)CCCN(C(=O)CSc2nnc(C)s2)C1 (stereo not given),–,0.643
C=CCC(O)(CC=C)CNC1CCN(c2ccc(C(=O)NCc3ccccc3F)cc2)CC1,0.935,–
O=C1N(Cc2cccc(F)c2F)CCCC1(O)CNCC1CCCCC1 (stereo not given),0.882,–
C=CCN(Cc1cn(-c2ccccc2)nc1-c1cccc(OC)c1)C1CCS(=O)(=O)C1 (stereo not given),–,0.608

# A run of entries from the list above, for reference:
SMILES,bacterial growth OD600 (polymyxin B 0.75 µg/mL),bacterial growth OD600 (polymyxin B 1 µg/mL)
CCOC(=O)CCNC(=O)CCc1nnc(Cc2cccc(C)c2)o1,0.921,–
CN(Cc1ccc(Oc2ccccc2)cc1)CC1(O)CCCN(C)C1=O (stereo not given),–,0.898
